US20070122395A1, “Genetic and pharmacological regulation of antidepressant-sensitive biogenic amine transporters through PKG/p38 map kinase” (Vanderbilt University, priority 2005, published 2007)

System: rat SERT expressed by RBL-2H3 cells
Test: [3H]5-HT transport assay in RBL-2H3 cells
Type: cell-based

`O=[N+]([O-])c1ccc(-c2nc(-c3ccncc3)c(-c3ccc(F)cc3)[nH]2)cc1` [PD169316] was tested, and the “blockade of anisomycin-stimulated 5-HT uptake / SERT activity” value was “blocked anisomycin stimulation of SERT”.
